Test results as given in PubChem BioAssay AID1745846 (National Center for Advancing Translational Sciences (NCATS), 2022).
In all, about 1,400 compounds went through this assay and about 30 (2%) were called active. Not shown: some 15% with an inconclusive outcome. The call rests on the fitted dose curve; in most records, active means well fitted inhibition curve with a large enough effect; inconclusive means small, poorly fitted or top-dose-only effect; inactive means flat fitted curve, though single readings scatter. The list shows a part of the results.

Assay: Firefly Luciferase Counterscreen for Inhibitors of ATXN expression
Details: luminescence; at 57.5 µM (top of the series)
Source text: University of Utah School of Medicine, Salt Lake City, Utah
Spinocerebellar ataxia type 2 (SCA2) is a multisystem neurodegenerative disease caused by a dominantly acting mutation leading to expansion of a polyQ domain in the ataxin-2 protein (ATXN2). SCA2 patients develop progressive ataxia and later lose function in other neuronal systems. Prominent parkinsonian signs develop in some patients. Like many neurodegenerative disorders, no symptomatic or disease-modifying treatments are known.
The primary objective of the proposed research is to identify compounds inhibiting ATXN2 expression and to test them for efficacy in SCA2 mouse models. We have developed a cell-based assay paired with an in vivo mouse model using identical luciferase expression constructs. This approach takes advantage of an ATXN2-luciferase transgene, with the luciferase gene flanked by the upstream and downstream portions of the ATXN2 gene. Here we describe a 5-7 dose quantitative high thoroughput screen (qHTS) for compounds lowering ATXN2 expression. We screened the NIH Molecular Libraries Small Molecule Repository (MLSMR) and NCGC's mechanistically annotated (MIPE) and drug repurposing (NPC) collections of compounds for lowering expression of an ATXN2-luciferase reporter in HEK-293 cells. The assay is a multiplexed cell viability assay to ensure target reduction in the absence of cytotoxicity. Secondary qHTS assays included a CMV-luciferase reporter expressed in HEK-293 cells as well as a biochemical assay using recombinant luciferase to detect inhibitors of the reporter enzyme. Compounds that inhibit ATXN2 expression but is not cytotoxic were selected for confirmatory and secondary screens.
PROTOCOL TABLE (as described by Inglese J, Shamu CE and Guy RK. 2007)
SEQUENCE No. (e.g., 1, 2, 3, etc.); […] (e.g., Cells, Incubation, Reagent, etc.); VALUE; DESCRIPTION.
2; Compounds; 23 nL; Kalypsis pintool (Wako USA) equipped with a 1536-well pin head.
3; Enzyme; 1 uL; recombinant firefly luciferase (prepared in 50 mM Tris HCl pH7.5, 10 mM MgCl2, 0.05% BSA, 0.01% Tween20) at final concentration of 10 nM. Wells containing buffer only were used as control (set as 100% inhibition when normalizing data).
4; Incubation; 10 min; room temperature.
5; Detection; Luminescence; Viewlux plate reader (PerkinElmer).
NOTES (numbers refer to Sequence numbers above)
1. Luciferase substrate is added to 1536 well, Greiner white assay plate. Evaporation was prevented by covering assay plates with metal lids containing holes to allow gas diffusion.
2. Compounds were added in a dose response manner with the final concentrations of 57, 11.4, 2.28, 0.46, 0.091, 0.018, 0.0037 uM. Vehicle-only plates, with DMSO being pin-transferred to columns 5-48, were inserted uniformly at the beginning and the end of each library to monitor and record any shifts in assay performance.
3. Recombinant firefly luciferase (10 nM final concentration) is added to the assay plate.
5. End-point luminescence is then measured on the Viewlux (PerkinElmer) imager equipped with a clear emission filter using a 2 sec exposure.
Inglese J, Shamu CE and Guy RK, Reporting data from high throughput screening of small molecule libraries, Nature Chemical Biology, 2007, 3(8): 438-441. doi.org/10.1038/nchembio0807-438.
On the % scale 0 is the no-effect control and ±100 the full control effect.

| Compound | activity change, negative = inhibition |
| --- | --- |
| Cc1cccc(C)c1-n1nnnc1C(c1cc2ccccc2o1)N1CCC(n2c(=O)[nH]c3ccccc32)CC1 (configuration not stated) | inactive: 1.58% |
| Cc1cccc(-n2c(/C=C/c3ccc([N+](=O)[O-])o3)nc3ccccc3c2=O)c1 | inactive: 1.02% |
| c1ccc(CNc2c3c(nc4ccccc24)CCC3)cc1 | inactive: -9.86% |
| CCCCn1c(=O)c(C(=O)Nc2ccccc2S(N)(=O)=O)c(O)c2ccccc21 | inactive: -17.2% |
| Cc1c2ccncc2c(C)c2c1[nH]c1ccccc12 | inactive: -0.544% |
| COc1cc2c(ccc3c4cc(OC)c(OC)cc4c[n+](C)c23)cc1O | inactive: -18.7% |
| CCC(C)(O)C(=O)OC1C(=O)OC2CC3C(C)=CC(=O)C(O)C3(C)C3C4(O)OCC23C1C(C)C4O (configuration not stated) | inactive: 2.23% |
| CSCCC(c1nnnn1-c1c(C)cccc1C)N1CCC2(CC1)C(=O)NCN2c1ccccc1 (configuration not stated) | inactive: 1.05% |
| CC1OC(OC2C(O)CC(OC3C(O)CC(OC4CCC5(C)C(CCC6C5CCC5(C)C(C7=CC(=O)OC7)C(O)CC65O)C4)OC3C)OC2C)CC(O)C1O (configuration not stated) | inactive: 0.81% |
| CC1CC(C)CC(C)C(O)C(C#N)=CC=CCC(C2CCCC2C(=O)O)OC(=O)CC(O)C(C)C1 (configuration not stated) | inactive: -8.03% |
| CCCCCCC(=O)N/N=C/c1c(O)n(CCCC)c(=S)[nH]c1=O | inactive: -5.16% |
| CCn1c(O)c(/C=N/NC(=O)c2ccccc2)c(=O)n(CC)c1=S | inactive: -6.72% |
| COc1ccc(N=Cc2c(O)n(-c3ccc(C)cc3)c(=O)[nH]c2=O)cc1 | inactive: -2.76% |
| Cc1ccc(-c2nc(N(C)C3CCN(C)CC3)c3ccccc3n2)cc1 | inactive: -14.4% |
| CNC(=O)Nc1ccc(C(=O)N/N=C\C23CC[C@@H](O)CC2(O)CC[C@@H]2[C@@H]3CCC3(C)C(C4=CC(=O)OC4)CCC23O)cc1 (some centres not stated) | inactive: -19.8% |
| CC12CCC(O)CC1CCC1C2CCC2(C)C(C3=CC(=O)OC3)C(O)CC12O (configuration not stated) | inactive: 3.7% |
| O=C(Nc1ccc(OC(=O)N2CCCCC2)cc1)N1CCOCC1 | inactive: -2.42% |
| CC(C)CCn1c(N)c(C(=O)NCc2cccs2)c2nc3ccccc3nc21 | inactive: -5.32% |
| COC(=O)c1nc(-c2ccc3c(n2)C(=O)C(N)=C(OC)C3=O)c(N)c(-c2ccc(OC)c(OC)c2O)c1C | inactive: -15.6% |
| CCCCCOc1ccc(C)cc1CN(CCCl)CCCl | inactive: -1.84% |
| NC(Cc1ccc(Cl)cc1)c1csc(Nc2ccccn2)n1 (configuration not stated) | inactive: -0.184% |
| O=[N+]([O-])c1oc2ccc3ccccc3c2c1CCO | inactive: -5.73% |
| COC1C(O)C(C)OC(OC2CCC3(C)C(CCC4C3C(O)CC3(C)C(C5=CC(=O)OC5)CCC43O)C2)C1O (configuration not stated) | inactive: 3.29% |

| Compound | activity change, negative = inhibition |
| --- | --- |
| c1ccc2sc(N3CCNCC3)nc2c1 | inactive: -4.71% |
| NC(Cc1ccc(F)cc1)c1csc(Nc2ccccn2)n1 (configuration not stated) | inactive: -8.32% |
| C=Cc1cc(OC)c2c(c1)c(=O)oc1c2cc(OC)c2c(O)ccc(C3OC(C)C(O)C(C)(O)C3O)c21 (configuration not stated) | inactive: -4.99% |
| C#CCCC[C@@H]1OC(=O)CNC(=O)C([C@@H](C)CC)NC(=O)[C@@H]2CCCN2C(=O)C([C@@H](C)CC)OC(=O)[C@H](Cc2ccccc2)N(C)C(=O)[C@H](C(C)C)NC(=O)C1(C)C (some centres not stated) | inactive: 1.32% |
| CCCCC(=O)N/N=C/c1c(O)n(Cc2ccc(F)cc2)c(=O)[nH]c1=O | inactive: -5.24% |
| N[C@@H](Cc1ccc(N(CCCl)CCCl)cc1)C(=O)O | inactive: -0.23% |
| Nc1c(C(=O)NCCc2ccccc2)c2nc3ccccc3nc2n1CCN1CCOCC1 | inactive: -9.07% |
| COc1ccc(O)c2c(=O)c3c(OC)cc4c(c3oc12)C1C=COC1O4 (configuration not stated) | inactive: 0.457% |
| CC(C)CCNC(=O)c1c(N)n(Cc2ccc3c(c2)OCO3)c2nc3ccccc3nc12 | inactive: -0.956% |
| CCOc1cc(CNCCc2c[nH]c3ccccc23)cc(Cl)c1OC | inactive: 0.646% |
| CCCCCCC(=O)N/N=C/c1c(O)n(CCc2ccccc2)c(=O)[nH]c1=O | inactive: -1.76% |
| COc1ccc(CC2C(=O)NC(C)C(=O)N(C)C3C(=O)N(C)C(Cc4ccc(O)c(c4)Oc4ccc(cc4)C3O)C(=O)NC(C)C(=O)NC(C)C(=O)N2C)cc1 (configuration not stated) | inactive: 1.63% |
| O=c1[nH]c2ccccc2n1C1CCN(C(CCc2ccccc2)c2nnnn2C2CCCC2)CC1 (configuration not stated) | inactive: 2.35% |
| C[C@H]1[C@@H](OS(=O)(=O)O)C[C@@H]2C[C@H]([C@@H](O)c3cc(=O)[nH]c(=O)[nH]3)NC3=NC[C@H]1N32 | inactive: 0.756% |
| O=[N+]([O-])c1ccc(C(c2ccc([N+](=O)[O-])cc2)c2ccc([N+](=O)[O-])cc2)cc1 | inactive: 2.49% |
| CC(=NCCc1c[nH]c2ccccc12)c1c(O)n(Cc2ccccc2)c(=O)[nH]c1=O | inactive: 2.57% |
| CC12CCC3C(CCC4(O)CC(O)CCC34C=NO)C1(O)CCC2C1=COC(=O)C1 (configuration not stated) | inactive: 6.38% |
| CC12CCC(O)CC1CCC1C2CCC2(C)C(C3=CC(=O)OC3)CCC12O (configuration not stated) | inactive: 3.41% |
| CNCC(O)c1cc(OCc2ccccc2)c(OCc2ccccc2)cc1F (configuration not stated) | inactive: 3.51% |
| CCCCCn1c(=O)c(C(=O)NCc2ccncc2)c(O)c2ccccc21 | inactive: -2.82% |
| COc1cc2c(cc1OC)[C@@H]1C(=O)c3ccc4c(c3O[C@@H]1CO2)C[C@H](C(C)C)O4 | inactive: -4.43% |
| C[C@@H]1C[C@@H]([C@H](O)CC2CC(=O)NC(=O)C2)C(=O)[C@@H](C)C1 | inactive: 3.21% |
| CCCCCn1c(NC(=O)c2ccco2)c(C(=O)OCC)c2nc3ccccc3nc21 | inactive: -9.71% |

5 entries already listed, sorted by SMILES length, smallest number first.

| Compound | activity change, negative = inhibition |
| --- | --- |
| c1ccc(CNc2c3c(nc4ccccc24)CCC3)cc1 | inactive: -9.86% |
| NC(Cc1ccc(Cl)cc1)c1csc(Nc2ccccn2)n1 (configuration not stated) | inactive: -0.184% |
| CCCCCn1c(NC(=O)c2ccco2)c(C(=O)OCC)c2nc3ccccc3nc21 | inactive: -9.71% |
| CC12CCC(O)CC1CCC1C2CCC2(C)C(C3=CC(=O)OC3)C(O)CC12O (configuration not stated) | inactive: 3.7% |
| CNC(=O)Nc1ccc(C(=O)N/N=C\C23CC[C@@H](O)CC2(O)CC[C@@H]2[C@@H]3CCC3(C)C(C4=CC(=O)OC4)CCC23O)cc1 (some centres not stated) | inactive: -19.8% |

Later entries

| Compound | activity change, negative = inhibition |
| --- | --- |
| C[C@]12CCC3C(CCC4=CC(O)CC[C@@]43/C=N/O)C1(O)CCC2C1=CC(=O)OC1 (some centres not stated) | inactive: 2.35% |
| C[C@]12CC[C@H](O)C[C@H]1CC[C@@H]1[C@@H]2CC[C@]2(C)[C@@H](C3=CC(=O)OC3)CC[C@]12O | inactive: 4.18% |
| COc1cc2c(cc1OC)C1C(=O)c3ccc4c(c3OC1CO2)CC(C(C)C)O4 (configuration not stated) | inactive: -1.73% |
| COc1cc2nc(CN3CC=C(c4ccccc4)CC3)[nH]c(=O)c2cc1OC | inactive: -1.91% |
| O=C1NC(=O)C2(CCCc3ccc(N(CCCl)CCCl)cc32)N1 (configuration not stated) | inactive: -9.28% |
| COc1cc(C(=O)NN=Cc2ccc(N(CCCl)CCCl)cc2)cc(OC)c1OC | inactive: -11.6% |
| CCCCN=C[C@]12CCC(O)CC1(O)CCC1[C@@H]2CC[C@]2(C)[C@H](C3C=CC(=O)O3)CCC12O (some centres not stated) | inactive: 1.73% |
| CCC(C)OC(=O)c1c(N)n(Cc2cccs2)c2nc3ccccc3nc12 (configuration not stated) | inactive: -1.95% |
| CCOC(=O)c1c(N)n(CCN2CCCCC2)c2nc3ccccc3nc12 | inactive: 0.489% |
| C[C@@H]1O[C@@H](O[C@@H]2C=C3CC[C@@H]4C(CC[C@]5(C)[C@@H](c6ccc(=O)oc6)CC[C@]45O)[C@@]3(C)CC2)[C@H](O)[C@H](O)[C@H]1O (some centres not stated) | inactive: -0.422% |
| COc1ccc(CCNC(=O)c2c(N)n(CCN3CCOCC3)c3nc4ccccc4nc23)cc1 | inactive: -11.1% |
| CC(=O)OC(C)(C)/C=C/C(=O)C(C)(O)C1[C@H](O)C[C@@]2(C)C3CC=C4C(CC[C@@H](O)C4(C)C)[C@]3(CO)C(=O)C[C@]12C (some centres not stated) | inactive: 4.43% |
| COc1ccc2c(c1)C(c1ccc(N(CCCl)CCCl)cc1)=NCC2 | inactive: 3.03% |
| COc1ccc(CC2NCC(O)C2OC(C)=O)cc1 (configuration not stated) | inactive: 1.25% |
| Cc1cc(N(CCCl)CCCl)ccc1C=NNC(=O)c1cccnc1 | inactive: -14.8% |
| CC(C)(C)n1nnnc1C(CCc1ccccc1)N1CCC(n2c(=O)[nH]c3ccccc32)CC1 (configuration not stated) | inactive: 1.95% |
| O=C1NC(=O)N(CCc2ccc(F)cc2)C(=O)/C1=C/C=C/c1ccccc1 | inactive: 0.883% |
| CC(=O)OC1CC2(O)C3CCC4CC(O)CCC4(C)C3CCC2(C)C1C1=CC(=O)OC1 (configuration not stated) | inactive: 4.3% |
| CCC(C)N1C(=O)/C(=C\c2cnc(N(C)C)nc2)C(=O)NC1=S (configuration not stated) | inactive: -17.6% |
| COC12C(COC(N)=O)C3=C(C(=O)C(C)=C(N)C3=O)N1CC1C2N1C (configuration not stated) | inactive: -5.01% |
| CCCCC(=O)N/N=C/c1c(O)n(CCC2=CCCCC2)c(=O)[nH]c1=O | inactive: -3.19% |
